The test addresses Peptide LW21. Briefly: FRET or BRET. A general note: In BRET a luciferase serves as donor, and the signal depends on an acceptor being close.

No constants are given. Whether binding was seen depends on the method and setting.

GLLDSKKWWLLLLLLLLALLLLLLLLWWKKFSRS [Peptide LW21]: the binding entry was “no binding”.

The record behind these values is paper doi:10.1101/093377.
